Results are given in words; binding and its absence hold for the method and conditions named. A result given as binding can be weak or reduced; the word gives no strength.
Target: Nanoarchaeum equitans RNA polymerase subunit A′ (Nanoarchaeum equitans) (UniProt Q74M69)
Test: SEC; subunits mixed in 8 M urea (large subunits equimolar, small subunits in at least four-fold excess), refolded by dialysis; assembly reaction run on a Superose-6 size-exclusion column at 0.5 ml/min; fractions on a silver-stained Bis/Tris 4-12% SDS gel and tested for transcriptional activity; both purified

Chains of the proteins cited; added tags and fusions are not shown. Lines headed by an entry give the natural chain unless they say otherwise; changes in a name come on top.
UniProt Q74M69: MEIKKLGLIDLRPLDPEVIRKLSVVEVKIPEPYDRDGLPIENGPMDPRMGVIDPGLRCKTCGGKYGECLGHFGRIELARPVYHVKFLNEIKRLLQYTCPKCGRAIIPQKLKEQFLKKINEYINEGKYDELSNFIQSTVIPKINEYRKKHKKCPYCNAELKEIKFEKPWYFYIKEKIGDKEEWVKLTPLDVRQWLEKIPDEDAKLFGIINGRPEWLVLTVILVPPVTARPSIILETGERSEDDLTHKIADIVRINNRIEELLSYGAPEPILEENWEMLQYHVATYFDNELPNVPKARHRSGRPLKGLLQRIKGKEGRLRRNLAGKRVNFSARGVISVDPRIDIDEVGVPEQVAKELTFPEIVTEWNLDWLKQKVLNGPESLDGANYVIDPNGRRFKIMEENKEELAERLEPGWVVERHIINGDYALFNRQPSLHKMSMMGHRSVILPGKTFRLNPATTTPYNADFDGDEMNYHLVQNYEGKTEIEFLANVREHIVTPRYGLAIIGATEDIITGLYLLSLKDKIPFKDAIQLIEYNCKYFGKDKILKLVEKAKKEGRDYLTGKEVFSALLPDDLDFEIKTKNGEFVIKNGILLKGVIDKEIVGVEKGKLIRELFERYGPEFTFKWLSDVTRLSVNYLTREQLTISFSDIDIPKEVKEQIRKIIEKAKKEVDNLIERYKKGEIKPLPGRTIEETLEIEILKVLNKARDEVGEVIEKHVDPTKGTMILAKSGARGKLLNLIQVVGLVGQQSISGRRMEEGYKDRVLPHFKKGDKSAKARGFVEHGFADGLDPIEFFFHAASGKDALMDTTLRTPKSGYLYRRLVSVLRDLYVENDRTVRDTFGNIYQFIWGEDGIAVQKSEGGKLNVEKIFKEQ
UniProt Q74MN2: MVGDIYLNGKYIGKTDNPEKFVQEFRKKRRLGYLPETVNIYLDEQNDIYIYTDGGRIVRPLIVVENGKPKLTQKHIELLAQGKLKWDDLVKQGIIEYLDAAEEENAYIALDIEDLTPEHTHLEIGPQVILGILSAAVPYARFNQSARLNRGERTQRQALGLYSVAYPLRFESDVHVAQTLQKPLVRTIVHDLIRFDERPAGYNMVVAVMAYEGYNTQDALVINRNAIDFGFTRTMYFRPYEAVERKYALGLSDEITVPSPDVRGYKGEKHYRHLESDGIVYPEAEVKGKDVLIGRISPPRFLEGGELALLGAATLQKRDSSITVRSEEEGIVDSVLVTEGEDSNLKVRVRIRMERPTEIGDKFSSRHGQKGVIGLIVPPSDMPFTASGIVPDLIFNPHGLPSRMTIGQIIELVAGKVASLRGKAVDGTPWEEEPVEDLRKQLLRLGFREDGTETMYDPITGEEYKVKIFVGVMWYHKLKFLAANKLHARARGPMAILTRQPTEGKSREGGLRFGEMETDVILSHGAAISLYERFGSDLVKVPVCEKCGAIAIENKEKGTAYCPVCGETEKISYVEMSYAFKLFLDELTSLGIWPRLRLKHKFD
UniProt Q74M82: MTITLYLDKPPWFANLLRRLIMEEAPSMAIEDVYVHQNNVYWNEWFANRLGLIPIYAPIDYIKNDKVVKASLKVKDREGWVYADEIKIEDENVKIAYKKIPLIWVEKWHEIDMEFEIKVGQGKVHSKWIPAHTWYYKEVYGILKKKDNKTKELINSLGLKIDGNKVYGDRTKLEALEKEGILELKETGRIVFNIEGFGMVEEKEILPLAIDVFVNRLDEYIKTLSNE
UniProt Q74M66: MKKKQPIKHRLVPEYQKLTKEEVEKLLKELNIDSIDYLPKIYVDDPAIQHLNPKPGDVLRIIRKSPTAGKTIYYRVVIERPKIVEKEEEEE
UniProt Q74NB5: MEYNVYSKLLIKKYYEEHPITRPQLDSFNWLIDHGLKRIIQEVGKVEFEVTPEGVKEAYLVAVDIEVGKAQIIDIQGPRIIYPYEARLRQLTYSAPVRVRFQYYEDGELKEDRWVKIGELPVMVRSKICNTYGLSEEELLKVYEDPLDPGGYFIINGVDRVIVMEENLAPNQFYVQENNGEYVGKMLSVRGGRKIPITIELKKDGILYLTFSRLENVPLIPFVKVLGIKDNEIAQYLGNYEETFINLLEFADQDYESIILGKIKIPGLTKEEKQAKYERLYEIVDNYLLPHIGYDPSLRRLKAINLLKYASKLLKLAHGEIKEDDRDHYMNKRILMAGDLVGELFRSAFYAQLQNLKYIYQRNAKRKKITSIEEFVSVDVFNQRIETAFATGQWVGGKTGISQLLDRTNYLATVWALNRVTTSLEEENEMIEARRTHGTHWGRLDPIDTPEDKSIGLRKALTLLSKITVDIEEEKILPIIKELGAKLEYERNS
UniProt Q74MN9: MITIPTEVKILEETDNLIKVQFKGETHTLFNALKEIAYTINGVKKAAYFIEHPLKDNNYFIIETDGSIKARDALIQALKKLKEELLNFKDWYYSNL
UniProt Q74MB5: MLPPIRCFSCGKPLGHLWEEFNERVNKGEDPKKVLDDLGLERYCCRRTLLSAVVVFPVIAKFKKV

Substance	binding
Nanoarchaeum equitans RNA polymerase subunit B′ (from UniProt Q74MN2)	binds
Nanoarchaeum equitans RNA polymerase subunit D (from UniProt Q74M82)	binds
Nanoarchaeum equitans RNA polymerase subunit H (from UniProt Q74M66)	binds

Other lines, results leading:

binding	Substance
binds	Nanoarchaeum equitans RNA polymerase subunit B″ (from UniProt Q74NB5)
binds	Nanoarchaeum equitans RNA polymerase subunit L (from UniProt Q74MN9)
binds	Nanoarchaeum equitans RNA polymerase subunit N (from UniProt Q74MB5)

From article PMC8204694
